This note sets out measurements from PMC8389195.

Sequences of proteins named here, by UniProt entry; tags and fusion partners are left off. A change or cut given only in a name is not applied to a line headed by its entry.
UniProt P93835: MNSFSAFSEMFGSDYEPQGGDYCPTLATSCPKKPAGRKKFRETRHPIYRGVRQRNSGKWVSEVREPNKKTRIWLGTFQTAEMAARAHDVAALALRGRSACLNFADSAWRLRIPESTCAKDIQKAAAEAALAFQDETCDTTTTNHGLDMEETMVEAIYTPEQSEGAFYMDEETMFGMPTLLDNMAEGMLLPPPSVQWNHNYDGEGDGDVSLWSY

This data set deals with MBP-CBF1 (Arabidopsis thaliana) (UniProt P93835). Description: EMSA. As to conditions: without Trx-h2 or Trx-h2(G/A); EMSA kit (Thermo Fisher), poly(dI-dC) binding buffer, NADPH/Trx reductase/Trx-h2 system, 6% polyacrylamide gel; proteins dialyzed in 20 mM HEPES-NaOH pH 8.0; recombinant protein; residues 1-213; protein details: MBP (N-terminal, pMAL vector).

The exact form of at least one protein or probe is not confirmed. Weaker means in comparison with the reference protein, sequence or condition of that experiment. At least one verdict was read from the data and is not stated in words by the source.

In the case of “ATTTCATGGCCGACCTGCTTTTT (double strand) [COR15a promoter CRT/DRE probe]”, the binding result is listed as “binds more weakly”.
